The list shows a part of the results. Most entries show no effect beyond the scatter of the controls.
What follows are targets tested with CN[C@@H]1C[C@H]2O[C@@](C)([C@@H]1OC)n1c3ccccc3c3c4c(c5c6ccccc6n2c5c31)C(=O)NC4 [staurosporine] (assay: log2 fold change of tryptic peptide abundance, ligand vs vehicle (limited proteolysis) (log2 ratio); higher = more trypsin-susceptible (destabilized)). Details: ligand concentration: 20 uM; sample: K562 cleared lysate; digestion: 4 min, 22 C (HT-PELSA RT4min, Orbitrap Astral).

Sequences of proteins named here, by UniProt entry; tags and fusion partners are left off. A change or cut given only in a name is not applied to a line headed by its entry.
UniProt Q96JN2: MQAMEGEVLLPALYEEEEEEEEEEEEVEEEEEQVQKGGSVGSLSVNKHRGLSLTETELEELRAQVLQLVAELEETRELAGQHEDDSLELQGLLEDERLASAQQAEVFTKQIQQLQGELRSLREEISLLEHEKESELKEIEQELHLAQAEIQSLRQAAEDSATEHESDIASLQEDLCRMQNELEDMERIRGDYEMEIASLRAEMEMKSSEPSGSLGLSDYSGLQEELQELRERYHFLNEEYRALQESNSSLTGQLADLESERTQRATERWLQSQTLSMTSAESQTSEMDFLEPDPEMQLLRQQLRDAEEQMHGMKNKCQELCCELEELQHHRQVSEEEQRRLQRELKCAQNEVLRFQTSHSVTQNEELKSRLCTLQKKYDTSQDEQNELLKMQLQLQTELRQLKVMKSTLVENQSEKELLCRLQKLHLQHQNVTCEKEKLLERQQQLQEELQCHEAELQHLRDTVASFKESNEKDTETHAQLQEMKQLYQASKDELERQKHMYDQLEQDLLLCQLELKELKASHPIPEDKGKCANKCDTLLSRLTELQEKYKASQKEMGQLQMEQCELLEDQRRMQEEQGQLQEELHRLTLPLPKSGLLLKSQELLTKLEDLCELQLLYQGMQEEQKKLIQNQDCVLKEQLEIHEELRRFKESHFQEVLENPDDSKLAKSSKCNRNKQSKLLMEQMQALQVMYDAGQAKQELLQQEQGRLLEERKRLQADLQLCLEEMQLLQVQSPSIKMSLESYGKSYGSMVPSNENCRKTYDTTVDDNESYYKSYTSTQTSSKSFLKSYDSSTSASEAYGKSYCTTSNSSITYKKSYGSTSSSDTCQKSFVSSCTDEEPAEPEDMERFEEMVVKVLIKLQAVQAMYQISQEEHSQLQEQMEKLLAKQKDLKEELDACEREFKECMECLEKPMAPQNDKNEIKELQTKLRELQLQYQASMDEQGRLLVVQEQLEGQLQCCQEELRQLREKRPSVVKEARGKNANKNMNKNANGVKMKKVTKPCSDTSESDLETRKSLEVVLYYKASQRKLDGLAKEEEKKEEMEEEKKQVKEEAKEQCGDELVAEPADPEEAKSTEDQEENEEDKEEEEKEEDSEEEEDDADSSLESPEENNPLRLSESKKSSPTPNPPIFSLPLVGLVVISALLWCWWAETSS
UniProt Q96S53: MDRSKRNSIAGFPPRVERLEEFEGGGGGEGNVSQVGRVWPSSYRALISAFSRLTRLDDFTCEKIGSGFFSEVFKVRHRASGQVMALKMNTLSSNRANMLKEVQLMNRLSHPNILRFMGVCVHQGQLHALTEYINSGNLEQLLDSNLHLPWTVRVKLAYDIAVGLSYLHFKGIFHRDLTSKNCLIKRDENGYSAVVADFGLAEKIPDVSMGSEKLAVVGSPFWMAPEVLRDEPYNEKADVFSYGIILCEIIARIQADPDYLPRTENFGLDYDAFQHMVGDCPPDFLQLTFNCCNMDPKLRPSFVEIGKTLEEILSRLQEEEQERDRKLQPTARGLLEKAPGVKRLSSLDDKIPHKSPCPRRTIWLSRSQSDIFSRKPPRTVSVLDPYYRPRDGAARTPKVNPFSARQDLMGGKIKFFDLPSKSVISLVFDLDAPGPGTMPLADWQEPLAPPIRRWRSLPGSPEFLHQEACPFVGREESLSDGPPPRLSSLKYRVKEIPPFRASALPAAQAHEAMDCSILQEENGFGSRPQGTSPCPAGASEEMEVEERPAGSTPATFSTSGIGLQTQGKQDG
UniProt Q96QG7: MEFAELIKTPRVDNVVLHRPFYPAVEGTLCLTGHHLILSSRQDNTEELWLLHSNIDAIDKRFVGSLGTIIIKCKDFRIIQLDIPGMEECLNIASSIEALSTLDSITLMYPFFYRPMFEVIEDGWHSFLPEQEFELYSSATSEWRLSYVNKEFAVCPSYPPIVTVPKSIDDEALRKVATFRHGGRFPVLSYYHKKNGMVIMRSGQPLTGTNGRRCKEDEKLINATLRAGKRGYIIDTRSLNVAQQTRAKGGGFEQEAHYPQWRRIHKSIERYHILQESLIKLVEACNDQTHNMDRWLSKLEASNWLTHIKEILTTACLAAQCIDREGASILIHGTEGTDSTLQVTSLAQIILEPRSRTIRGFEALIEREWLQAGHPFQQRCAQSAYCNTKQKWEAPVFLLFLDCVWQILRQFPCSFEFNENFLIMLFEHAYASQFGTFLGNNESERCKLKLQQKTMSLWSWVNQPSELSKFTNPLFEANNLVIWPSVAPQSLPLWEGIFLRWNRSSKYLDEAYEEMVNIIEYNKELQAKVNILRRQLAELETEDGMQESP
UniProt Q96JM3: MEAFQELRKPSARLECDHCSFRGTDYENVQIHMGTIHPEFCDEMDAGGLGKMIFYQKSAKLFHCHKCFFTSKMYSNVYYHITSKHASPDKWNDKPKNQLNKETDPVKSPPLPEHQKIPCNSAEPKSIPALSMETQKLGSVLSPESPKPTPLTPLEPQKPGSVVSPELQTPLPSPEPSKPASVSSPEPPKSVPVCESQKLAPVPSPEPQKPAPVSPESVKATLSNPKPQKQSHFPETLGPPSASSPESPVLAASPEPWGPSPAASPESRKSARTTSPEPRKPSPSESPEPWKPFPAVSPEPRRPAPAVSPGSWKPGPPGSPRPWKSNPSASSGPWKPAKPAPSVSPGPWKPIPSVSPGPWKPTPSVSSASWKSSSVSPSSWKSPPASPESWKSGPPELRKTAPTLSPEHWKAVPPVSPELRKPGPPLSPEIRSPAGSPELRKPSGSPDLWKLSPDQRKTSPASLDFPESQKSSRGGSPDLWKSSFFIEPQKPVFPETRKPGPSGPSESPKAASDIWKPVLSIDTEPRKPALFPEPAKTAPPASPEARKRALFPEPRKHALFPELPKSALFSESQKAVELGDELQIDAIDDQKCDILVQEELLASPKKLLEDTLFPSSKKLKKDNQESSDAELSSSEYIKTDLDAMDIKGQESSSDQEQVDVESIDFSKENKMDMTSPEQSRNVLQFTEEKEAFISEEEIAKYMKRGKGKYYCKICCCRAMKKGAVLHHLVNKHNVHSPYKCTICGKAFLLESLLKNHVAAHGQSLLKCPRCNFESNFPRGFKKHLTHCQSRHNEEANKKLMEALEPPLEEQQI
UniProt Q96S44: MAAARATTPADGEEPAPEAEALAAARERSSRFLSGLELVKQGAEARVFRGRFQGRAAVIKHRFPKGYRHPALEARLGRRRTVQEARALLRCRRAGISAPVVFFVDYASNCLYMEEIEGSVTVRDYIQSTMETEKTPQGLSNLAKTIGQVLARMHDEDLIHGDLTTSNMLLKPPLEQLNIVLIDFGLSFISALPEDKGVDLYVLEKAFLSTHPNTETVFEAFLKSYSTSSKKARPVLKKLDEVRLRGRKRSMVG
UniProt Q96SI9: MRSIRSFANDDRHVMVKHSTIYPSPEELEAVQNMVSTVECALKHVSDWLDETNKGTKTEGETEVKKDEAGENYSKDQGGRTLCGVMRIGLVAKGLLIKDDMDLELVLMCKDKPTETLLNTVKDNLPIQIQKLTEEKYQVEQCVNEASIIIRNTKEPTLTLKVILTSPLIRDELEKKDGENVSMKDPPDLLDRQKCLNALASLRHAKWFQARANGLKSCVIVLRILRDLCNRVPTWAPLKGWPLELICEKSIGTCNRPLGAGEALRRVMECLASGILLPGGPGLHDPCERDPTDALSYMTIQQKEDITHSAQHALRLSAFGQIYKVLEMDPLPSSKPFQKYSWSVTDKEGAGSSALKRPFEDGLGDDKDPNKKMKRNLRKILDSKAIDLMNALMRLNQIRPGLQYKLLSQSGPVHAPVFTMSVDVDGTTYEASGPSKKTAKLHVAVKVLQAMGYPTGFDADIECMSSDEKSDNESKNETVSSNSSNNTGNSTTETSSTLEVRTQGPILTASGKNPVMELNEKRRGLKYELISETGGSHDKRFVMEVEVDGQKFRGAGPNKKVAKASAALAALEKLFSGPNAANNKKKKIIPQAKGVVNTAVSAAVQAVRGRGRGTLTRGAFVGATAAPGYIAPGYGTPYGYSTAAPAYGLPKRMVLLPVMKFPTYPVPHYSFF
UniProt Q96M89: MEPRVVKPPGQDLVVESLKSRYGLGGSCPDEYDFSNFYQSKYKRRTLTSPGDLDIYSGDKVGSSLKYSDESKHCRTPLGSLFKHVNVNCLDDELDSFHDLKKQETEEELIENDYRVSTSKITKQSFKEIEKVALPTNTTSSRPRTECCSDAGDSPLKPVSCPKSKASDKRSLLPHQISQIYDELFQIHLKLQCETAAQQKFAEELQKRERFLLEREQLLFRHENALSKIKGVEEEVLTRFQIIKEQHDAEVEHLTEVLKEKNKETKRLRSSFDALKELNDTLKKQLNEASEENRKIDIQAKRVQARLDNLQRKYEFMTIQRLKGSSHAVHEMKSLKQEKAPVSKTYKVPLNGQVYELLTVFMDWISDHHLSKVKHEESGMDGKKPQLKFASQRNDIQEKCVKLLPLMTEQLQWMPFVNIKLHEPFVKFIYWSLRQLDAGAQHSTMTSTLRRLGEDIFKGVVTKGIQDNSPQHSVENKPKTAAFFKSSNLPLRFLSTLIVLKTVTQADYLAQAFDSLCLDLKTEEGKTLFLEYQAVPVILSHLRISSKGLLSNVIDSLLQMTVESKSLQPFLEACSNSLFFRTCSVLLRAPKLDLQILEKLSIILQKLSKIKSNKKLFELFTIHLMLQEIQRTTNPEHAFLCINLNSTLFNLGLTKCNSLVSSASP

| Target | log2 fold change |
| --- | --- |
| CCDC136 (peptide sequence: FQTSHSVTQNEELK, peptide start residue: 355) (UniProt Q96JN2) | -0.0286 |
| TESK2 (peptide sequence: TVSVLDPYYRPR, peptide start residue: 379) (UniProt Q96S53) | 0.163 |
| UniProt Q96K17 (peptide sequence: TATADDKKLQSSLK, peptide start residue: 31) | 0.269 |
| MTMR9 (peptide sequence: AKGGGFEQEAHYPQWR, peptide start residue: 247) (UniProt Q96QG7) | -0.285 |
| UniProt Q96JM3 (peptide sequence: KHALFPELPK, peptide start residue: 556) | 0.335 |
| TP53RK (peptide sequence: FLSGLELVK, peptide start residue: 32) (UniProt Q96S44) | 0.32 |
| STRBP (peptide sequence: VILTSPLIRDELEKK, peptide start residue: 162) (UniProt Q96SI9) | 0.167 |
| IWS1 (peptide sequence: KLTLLPAVVMHLK, peptide start residue: 587) (UniProt Q96ST2) | 0.217 |
| CCDC138 (peptide sequence: VVKPPGQDLVVESLK, peptide start residue: 5) (UniProt Q96M89) | 0.331 |

Reference: the supplement of paper PMC12819154, “High-throughput peptide-centric local stability assay extends protein–ligand identification to membrane proteins, tissues and bacteria” (Nature Structural & Molecular Biology, 2025)
